These are yes or no findings as the source states them, for the method shown. Binding seen in cells or lysates may run through a third protein. Binding can be weak; no strength is given. Tags and fused reporters may be left off the sequences shown.
Molecular target: T1, GST-LKB1 (UniProt Q15831)
T1 sequence: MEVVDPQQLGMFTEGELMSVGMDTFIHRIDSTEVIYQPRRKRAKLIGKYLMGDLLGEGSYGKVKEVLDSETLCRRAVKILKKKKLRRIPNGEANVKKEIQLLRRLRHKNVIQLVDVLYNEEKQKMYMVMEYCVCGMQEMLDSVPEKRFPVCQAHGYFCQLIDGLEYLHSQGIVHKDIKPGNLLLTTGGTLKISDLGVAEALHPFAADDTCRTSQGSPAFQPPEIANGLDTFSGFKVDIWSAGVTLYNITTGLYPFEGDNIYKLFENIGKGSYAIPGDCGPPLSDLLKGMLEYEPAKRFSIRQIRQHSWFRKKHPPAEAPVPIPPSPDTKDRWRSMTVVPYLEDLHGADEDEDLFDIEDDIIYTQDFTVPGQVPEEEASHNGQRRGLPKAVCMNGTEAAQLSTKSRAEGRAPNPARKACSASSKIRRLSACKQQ
Experiment: pull-down; GST pull-down from lysate of HEK293T cells co-expressing a GST-tagged and a Venus-Flag-tagged protein; 1% NP-40 lysis buffer (20 mM Tris-HCl, 150 mM NaCl, 5% glycerol, 2 mM EDTA), glutathione sepharose beads, 4 C for 2 h, immunoblot; cells serum-starved overnight for Fig. 1H

For “Venus-Flag-tagged cIAP1 N-terminal truncation (N) (human) (domain or fragment)”, the binding was “binds”.
